The test deals with GABA type A receptor γ2 subunit (mouse (endogenous in cortical tissue)) (UniProt P22723). The test is described as follows: affinity purification with mass spectrometry; mouse cortical tissue lysate (mice injected with vehicle or 10 mg/kg DZP, 12 h) in co-IP buffer (50 mM Tris HCl pH 7.6, 50 mM NaCl, 0.25% Igepal, 1 mM EDTA), immunoprecipitated overnight with rabbit γ2 subunit antibody or rabbit IgG, Protein A Sepharose, 4°C; label-free HPLC-ESI-MS/MS; hits at least 3:1 enriched over IgG control.

Protein sequences, listed by entry. Tags and fused reporters are not part of them. Residues count along the entry.
UniProt P22723, residues 39-474: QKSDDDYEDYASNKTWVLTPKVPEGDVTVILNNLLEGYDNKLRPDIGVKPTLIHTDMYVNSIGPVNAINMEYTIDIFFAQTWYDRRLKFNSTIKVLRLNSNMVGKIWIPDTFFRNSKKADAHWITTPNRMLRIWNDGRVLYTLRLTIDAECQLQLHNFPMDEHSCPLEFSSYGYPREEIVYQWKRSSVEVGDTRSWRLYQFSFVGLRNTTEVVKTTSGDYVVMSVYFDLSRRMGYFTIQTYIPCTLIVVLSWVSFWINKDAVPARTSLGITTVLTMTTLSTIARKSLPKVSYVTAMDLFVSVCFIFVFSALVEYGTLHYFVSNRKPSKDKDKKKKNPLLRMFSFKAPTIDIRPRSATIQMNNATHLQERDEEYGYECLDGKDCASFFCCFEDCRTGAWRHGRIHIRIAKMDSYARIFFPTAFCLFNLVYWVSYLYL

Results are given in words; binding and its absence hold for the method and conditions named. In cells and extracts the contact can be indirect. A yes stands for co-enrichment or nearness to the bait. Other partners may have been found.

We go through 11 molecules from PMC6497791.

B1: KxDL motif containing 1 (protein, UniProt Q80XH1 1-177)
chain: MDTPDSASRVFCGRFLSMVNTDDVNAIILAQKNMLDRFEKTNEMLLNFNNLSSVRLQQMSERFMHHTRTLVDMKRDLDSIFRRIRTLKGKLARQHPEAFSHIPEGSFLEDEDEDPIPPSITTTIATSEQSTGSCDTSPDTVSPSLSPGFEDLSHIQPGSPAINGHRQTDDEEETHEE
With B1, the binding result is “binds”.

B2: EH domain containing 3 (protein, UniProt Q9QXY6 1-535)
chain: MFSWLGNDDRRKKDPEVFQTVSDGLKKLYKTKLLPLEEYYRFHEFHSPALEDADFDNKPMVLLVGQYSTGKTTFIRYLLEQDFPGMRIGPEPTTDSFIAVMQGDVEGIIPGNALVVDPKKPFRKLNAFGNAFLNRFVCAQLPNAVLESISVIDTPGILSGEKQRISRGYDFAAVLEWFAERVDRIILLFDAHKLDISDEFSEVIKALKNHEDKMRVVLNKADQIETQQLMRVYGALMWSLGKIVNTPEVIRVYIGSFWSHPLLIPDNRKLFEAEEQDLFRDIQSLPRNAALRKLNDLIKRARLAKVHAYIISSLKKEMPSVFGKDTKKKELVNNLAEIYGRIEREHQISPGDFPNLKRMQDQLQAQDFSKFQPLKSKLLEVVDDMLAHDIAQLMVLVRQEETQRPVQMVKGGAFEGTLQGPFGHGYGEGAGEGIDDAEWVVARDKPMYDEIFYTLSPVDGKITGANAKKEMVRSKLPNSVLGKIWKLADIDKDGMLDDEEFALANHLIKVKLEGHELPSELPAHLLPPSKRKVSE
For B2, the binding entry is “binds”.

B3: Interleukin enhancer binding factor 3 (protein, UniProt Q9Z1X4-3 1-911)
chain: MALYHHHFITRRRRRPMRIFVNDDRHVMAKHSSVYPTQEELEAVQNMVSHTERALKAVSDWIDEQEKGNSELSEAENMDTPPDDESKEGAGEQKAEHMTRTLRGVMRVGLVAKGLLLKGDLDLELVLLCKEKPTTALLDKVADNLAIQLTTVTEDKYEILQSVDDAAIVIKNTKEPPLSLTIHLTSPVVREEMEKVLAGETLSVNDPPDVLDRQKCLAALASLRHAKWFQARANGLKSCVIVIRVLRDLCTRVPTWGPLRGWPLELLCEKSIGTANRPMGAGEALRRVLECLASGIVMPDGSGIYDPCEKEATDAIGHLDRQQREDITQSAQHALRLAAFGQLHKVLGMDPLPSKMPKKPKNENPVDYTVQIPPSTTYAITPMKRPMEEDGEEKSPSKKKKKIQKKEEKADPPQAMNALMRLNQLKPGLQYKLISQTGPVHAPIFTMSVEVDGSNFEASGPSKKTAKLHVAVKVLQDMGLPTGAEGRDSSKGEDSAEESDGKPAIVAPPPVVEAVSNPSSVFPSDATTEQGPILTKHGKNPVMELNEKRRGLKYELISETGGSHDKRFVMEVEVDGQKFQGAGSNKKVAKAYAALAALEKLFPDTPLALEANKKKRTPVPVRGGPKFAAKPHNPGFGMGGPMHNEVPPPPNIRGRGRGGNIRGRGRGRGFGGANHGGGYMNAGAGYGSYGYSSNSATAGYSQFYSNGGHSGNAGGGGSGGGGGSSSYSSYYQGDSYNSPVPPKHAGKKPLHGGQQKASYSSGYQSHQGQQQPYNQSQYSSYGTPQGKQKGYGHGQGSYSSYSNSYNSPGGGGGSDYSYDSKFNYSGSGGRSGGNSYGSSGSSSYNTGSHGGYGTGSGGSSSYQGKQGGYSSQSNYSSPGSSQSYSGPASSYQSSQGGYSRNTEHSMNYQYR
For the molecule B3, the binding entry is “binds”.

B4: 2′,3′-cyclic nucleotide 3′ phosphodiesterase (protein, UniProt P16330 1-420)
chain: MNTSFTRKSHTFLPKLFFRKMSSSGAKEKPELQFPFLQDEDTVATLHECKTLFILRGLPGSGKSTLARLILEKYHDGTKMVSADAYKIIPGSRADFSEAYKRLDEDLAGYCRRDIRVLVLDDTNHERERLDQLFEMADQYQYQVVLVEPKTAWRLDCAQLKEKNQWQLSADDLKKLKPGLEKDFLPLYFGWFLTKKSSETLRKAGQVFLEELGNHKAFKKELRHFISGDEPKEKLELVSYFGKRPPGVLHCTTKFCDYGKAAGAEEYAQQEVVKRSYGKAFKLSISALFVTPKTAGAQVVLTDQELQLWPSDLDKPSASEGLPPGSRAHVTLGCAADVQPVQTGLDLLDILQQVKGGSQGEAVGELPRGKLYSLGKGRWMLSLTKKMEVKAIFTGYYGKGKPVPIHGSRKGGAMQICTII
With B4, the binding result was “binds”.

B5: Glutathione S-transferase mu 3 (protein, UniProt P48774 1-224)
chain: MSSKSMVLGYWDIRGLAHAIRMLLEFTDTSYEEKRYICGEAPDYDRSQWLDVKFKLDLDFPNLPYLMDGKNKITQSNAILRYIARKHNMCGDTEEEKIRVDIMENQIMDFRMQLVRLCYNSNHENLKPQYLEQLPAQLKQFSLFLGKFTWFAGEKLTFVDFLTYDVLDQNRIFEPKCLDEFPNLKAFMCRFEALEKIAAFLQSDRFFKMPINNKMAKWGNKCLC
Take B5: the binding result is listed as “binds”.

B6: Neurofilament heavy (protein, UniProt P19246 1-1090)
chain: MMSFGSADALLGAPFAPLHGGGSLHYSLSRKAGPGGTRSAAGSSSGFHSWARTSVSSVSASPSRFRGAASSTDSLDTLSNGPEGCVVAAVAARSEKEQLQALNDRFAGYIDKVRQLEAHNRSLEGEAAALRQQQAGRAAMGELYEREVREMRGAVLRLGAARGQLRLEQEHLLEDIAHVRQRLDEEARQREEAEAAARALARFAQEAEAARVELQKKAQALQEECGYLRRHHQEEVGELLGQIQGCGAAQAQAQAEARDALKCDVTSALREIRAQLEGHAVQSTLQSEEWFRVRLDRLSEAAKVNTDAMRSAQEEITEYRRQLQARTTELEALKSTKESLERQRSELEDRHQADIASYQDAIQQLDSELRNTKWEMAAQLREYQDLLNVKMALDIEIAAYRKLLEGEECRIGFGPSPFSLTEGLPKIPSISTHIKVKSEEMIKVVEKSEKETVIVEGQTEEIRVTEGVTEEEDKEAQGQEGEEAEEGEEKEEEEGAAATSPPAEEAASPEKETKSRVKEEAKSPGEAKSPGEAKSPAEAKSPGEAKSPGEAKSPGEAKSPAEPKSPAEPKSPAEAKSPAEPKSPATVKSPGEAKSPSEAKSPAEAKSPAEAKSPAEAKSPAEAKSPAEAKSPAEAKSPATVKSPGEAKSPSEAKSPAEAKSPAEAKSPAEAKSPAEVKSPGEAKSPAEPKSPAEAKSPAEVKSPAEAKSPAEVKSPGEAKSPAAVKSPAEAKSPAAVKSPGEAKSPGEAKSPAEAKSPAEAKSPIEVKSPEKAKTPVKEGAKSPAEAKSPEKAKSPVKEDIKPPAEAKSPEKAKSPVKEGAKPPEKAKPLDVKSPEAQTPVQEEAKHPTDIRPPEQVKSPAKEKAKSPEKEEAKTSEKVAPKKEEVKSPVKEEVKAKEPPKKVEEEKTLPTPKTEAKESKKDEAPKEAPKPKVEEKKETPTEKPKDSTAEAKKEEAGEKKKAVASEEETPAKLGVKEEAKPKEKTETTKTEAEDTKAKEPSKPTETEKPKKEEMPAAPEKKDTKEEKTTESRKPEEKPKMEAKVKEDDKSLSKEPSKPKTEKAEKSSSTDQKESQPPEKTTEDKATKGEK
For B6, the binding entry is “binds”.

B7: Ubiquinol-cytochrome c reductase complex III subunit VII (protein, UniProt Q9CQ69 1-82)
chain: MGREFGNLARIRHVISYSLSPFEQRAFPSYFSKGIPNVLRRTRERILRVAPPFVVVYLIYTWGNQEFEQSKRKNPAMYENDK
Turning to B7, the binding result is recorded as “binds”.

B8: Transmembrane protein with EGF like and two follistatin like domains 2 (protein, UniProt Q9QYM9 41-374)
chain: FPTSLSDCQTPTGWNCSGYDDRENDLFLCDTNTCKFDGECLRIGDTVTCVCQFKCNSDYVPVCGSNGESYQNECYLRQAACKQQSEILVVSEGSCATDTGSGSGDGVHEGSGETSQKETSTCDICQFGAECDEDAEDVWCVCNIDCSQTNFNPLCASDGKSYDNACQIKEASCQKQEKIEVMSLGRCQDNTTTTTKSEDGHYARTDYAENANKLEESAREHHIPCPEHYNGFCMHGKCEHSINMQEPSCRCDAGYTGQHCEKKDYSVLYVVPGPVRFQYVLIAAVIGTIQIAVICVVVLCITRKCPRSNRIHRQKQNTGHYSSDNTTRASTRLI
In the case of B8, the binding entry is reported as “binds”.

B9: ATP synthase peripheral stalk-membrane subunit b (protein, UniProt Q9CQQ7 43-256)
chain: PLPPLPEYGGKVRLGLIPEEFFQFLYPKTGVTGPYVLGTGLSLYFLSKEIYVITPETFSTISVVGLIVYVIKKYGASFGEFIDKLNEEKIAQLEEVKQSSMKQIQDAIDMEKAQQALVQKRHYLFDVQRNNIALALEVTYRERLHKAYKEVKNRLDYHISVQNMMRRKEEEHMIDWVEKHVVKSISVQQEKETIAKCIEDLKLLAKKAQAQPIM
With B9, the binding entry is “binds”.

B10: Ubiquinol-cytochrome c reductase core protein 1 (protein, UniProt Q9CZ13 35-480)
chain: TATFAQALQSVPETQVSILDNGLRVASEQSSHATCTVGVWIDAGSRYETEKNNGAGYFLEHLAFKGTKNRPGNALEKEVESIGAHLNAYSTREHTAYLIKALSKDLPKVVELLADIVQNSSLEDSQIEKERDVILREMQENDASMQNVVFDYLHATAFQGTPLAQAVEGPSENVRRLSRTDLTDYLNRHYKAPRMVLAAAGGVEHQQLLDLAQKHLSSVSRVYEEDAVPGLTPCRFTGSEIRHRDDALPLAHVAIAVEGPGWANPDNVTLQVANAIIGHYDCTYGGGVHLSSPLASVAVANKLCQSFQTFNISYSDTGLLGAHFVCDAMSIDDMVFFLQGQWMRLCTSATESEVTRGKNILRNALVSHLDGTTPVCEDIGRSLLTYGRRIPLAEWESRIQEVDAQMLRDICSKYFYDQCPAVAGYGPIEQLPDYNRIRSGMFWLRF
Regarding B10, the binding entry was “binds”.

B11: ELAV like RNA binding protein 3 (protein, UniProt Q60900-2 1-360)
chain: MVTQILGAMESQVGGGPAGPALPNGPLLGTNGATDDSKTNLIVNYLPQNMTQDEFKSLFGSIGDIESCKLVRDKITGQSLGYGFVNYSDPNDADKAINTLNGLKLQTKTIKVSYARPSSASIRDANLYVSGLPKTMSQKEMEQLFSQYGRIITSRILLDQATGVSRGVGFIRFDKRIEAEEAIKGLNGQKPLGAAEPITVKFANNPSQKTGQALLTHLYQSSARRYAGPLHHQTQRFRLDNLLNMAYGVKRFSPIAIDGMSGLAGVGLSGGAAGAGWCIFVYNLSPEADESVLWQLFGPFGAVTNVKVIRDFTTNKCKGFGFVTMTNYDEAAMAIASLNGYRLGERVLQVSFKTSKQHKA
Consider B11, for which the binding entry is listed as “binds”.
